{
  "source": "patent US20200354728",
  "key": {"[1]": {"system": "MmsR (LysR-type transcriptional regulator) (Pseudomonas denitrificans)", "assay": "footprint", "conditions": "DNase I, capillary electrophoresis; O1 and O2 protected; MmsR 0-1.2 uM; purified recombinant protein; protein details: C-terminal 6xHis, expressed in E. coli BL21"}, "[2]": {"system": "MmsR (LysR-type transcriptional regulator) (Pseudomonas denitrificans)", "assay": "EMSA", "conditions": "data not shown; purified recombinant protein; protein details: C-terminal 6xHis, expressed in E. coli BL21"}},
  "note": "For at least one entry, the source does not settle the construct or the ends of the probe. For some assays here: No signal at the amounts used counts as a negative.",
  "data": [
    {"sequence": "CCGCAGGTTGTCCCAGTCCATGTCAGCCTCAGCGCACCTCGAATGTGCAAAAACGCAGACCATACTTGCACATCACCGCATTGAGTACATCAAAAATGCACTGTTAGGATCGATCCAGACAACAAAAAAGCCACAGGCTGGGAGAATCCCGATGACCGCAACTGCCCCG (double strand) [DNase I footprinting fragment]", "values": [
      {"measurement": "binding result", "setting": "[1]", "result": "binds"}
    ]},
    {"sequence": "GCCCCCGCCTACCCGCCCCAGCCACCCCGGACTCAGCAAGGATGCTGGCCCGGGCCTGGGCGGAGACGTCTTTCGCGCCCGACCATCAGAACAAGAGGACAACCCC (double strand) [PhbdH-4 promoter region]", "values": [
      {"measurement": "binding result", "setting": "[2]", "result": "no binding"}
    ]}
  ]
}
